# The other results are listed elsewhere or left out. Repeats in this data set agree poorly, so a single value says little.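 Human kidney-derived cells stably carry a construct in which eight TEAD-binding elements drive luciferase, measured by luminescence in a drug-repurposing library screen. A hit is any compound whose signal exceeds the plate mean by more than five robust Z scores.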
# Tested on: HEK293A TEAD-LUC reporter
# Assay: TEAD-luciferase reporter activity (YAP activation), robust Z score vs plate; higher = stronger YAP/TEAD activation
# Conditions: 24 h
SMILES,TEAD-luciferase reporter activity (compound concentration: 200 nM),TEAD-luciferase reporter activity (compound concentration: 2 uM),TEAD-luciferase reporter activity (compound concentration: 10 uM)
Cc1cc(C(=O)NNCc2ccccc2)no1 [Isocarboxazid],inactive: -0.832,inactive: 0.23,inactive: -0.211
CC(C)(C)OC(=O)N1CCC(CNC(=O)c2cnc(Nc3cccc(Cl)c3)nc2C(F)(F)F)CC1,inactive: -1.39,inactive: -0.394,inactive: 1.95
O=C1NCCN1CCN1CCC(c2cn(-c3ccc(F)cc3)c3ccc(Cl)cc23)CC1 [sertindole],active: 8.27,inactive: -1.08,inactive: 1.6
OCc1cc(C(O)CNCCCCCCOCCCCc2ccccc2)ccc1O (stereo not drawn) [Salmeterol],inactive: -0.426,–,inactive: 0.4
OCc1cc(C(O)CNCCCCCCOCCCCc2ccccc2)ccc1O [(S)-salmeterol xinafrate],–,inactive: -0.615,–
O=C1CCCCCN1C1CCN(Cc2ccc(F)cc2)CC1,inactive: -3.26,–,inactive: 1.25
O=C(O)/C=C/c1nc(CSc2c(Cl)cccc2Cl)ccc1OCCc1ccccc1 [Ticolubant],inactive: 0.196,inactive: -0.456,inactive: 2.55
COc1ccc(OC)c(Cc2cnc3nc(N)nc(N)c3c2C)c1,inactive: -0.731,inactive: -0.418,inactive: -1.78
C#CCOc1ccc2c(c1)c(-c1ccc(C(C)C)cc1)nc(=O)n2Cc1ccc(OC)c(OCC)c1,inactive: -1.41,inactive: -1.83,inactive: 1.76
Cc1ccc2[nH]c3c(c2c1)CCC(NC(=O)Cc1ccc(F)cc1)C3 (stereo not drawn),inactive: -0.811,inactive: 1.44,inactive: -2.39
COc1ccc2c(c1)N(C(=O)OC(C)C)[C@@H](CSC)C(=O)N2,inactive: 0.00241,inactive: -0.145,inactive: 0.839
C[C@H]1c2cccc(O)c2C(=O)C2=C(O)[C@]3(O)C(=O)C(C(N)=O)=C(O)[C@@H](N(C)C)[C@@H]3[C@@H](O)[C@@H]21 [doxycycline],inactive: 0.463,–,inactive: 2.62
C[C@H]1c2cccc(O)c2C(=O)C2=C(O)[C@]3(O)C(=O)C(C(N)=O)=C(O)[C@@H](N(C)C)[C@@H]3[C@@H](O)[C@@H]21 [doxycycline hyclate],–,inactive: -0.603,–
CCC[C@@H](N(NC(=O)c1cccc(OC)c1CC)C(=O)c1cc(C)cc(C)c1)C(C)(C)C [Veledimex],inactive: -1.12,inactive: -0.184,inactive: -0.222
CC(C)CC(NC(=O)CNC(=O)C(CCC(N)=O)NC(=O)C(CC(C)C)NC(=O)C(CC(C)C)NC(=O)C(CCCNC(=N)N)NC(=O)C(CCC(N)=O)NC(=O)C(CC(C)C)NC(=O)C(CCCNC(=N)N)NC(=O)C(C)NC(=O)C(CO)NC(=O)C(CC(=O)O)NC(=O)C(CCCNC(=N)N)NC(=O)C(CC(C)C)NC(=O)C(CCCNC(=N)N)NC(=O)C(CO)NC(=O)C(CC(C)C)NC(=O)C(CCC(=O)O)NC(=O)C(CO)NC(=O)C(NC(=O)C(Cc1ccccc1)NC(=O)C(NC(=O)CNC(=O)C(CC(=O)O)NC(=O)C(CO)NC(=O)C(N)Cc1ncc[nH]1)C(C)O)C(C)O)C(=O)NC(C(=O)O)C(C)C (stereo not drawn) [Secretin human],inactive: -2.49,inactive: -1.28,inactive: -1.72
CC(C)CC(NC(=O)CNC(=O)C(CCC(N)=O)NC(=O)C(CC(C)C)NC(=O)C(CC(C)C)NC(=O)C(CCCNC(=N)N)NC(=O)C(CCC(N)=O)NC(=O)C(CC(C)C)NC(=O)C(CCCNC(=N)N)NC(=O)C(C)NC(=O)C(CO)NC(=O)C(CC(=O)O)NC(=O)C(CCCNC(=N)N)NC(=O)C(CC(C)C)NC(=O)C(CCCNC(=N)N)NC(=O)C(CO)NC(=O)C(CC(C)C)NC(=O)C(CCC(=O)O)NC(=O)C(CO)NC(=O)C(NC(=O)C(Cc1ccccc1)NC(=O)C(NC(=O)CNC(=O)C(CC(=O)O)NC(=O)C(CO)NC(=O)C(N)Cc1ncc[nH]1)C(C)O)C(C)O)C(=O)NC(C(=O)O)C(C)C (stereo not drawn) [Secretin],inactive: -0.975,inactive: 0.253,inactive: -0.0809
CN(Cc1ccc(-c2ccccc2)cc1)CC1CCCCC1,inactive: -1.95,–,inactive: 4.01
CCC[C@@]1(CC(=O)O)OCCc2c1[nH]c1c(C)ccc(C#N)c21,inactive: 1.06,inactive: -0.0167,inactive: 0.157
CCC(CC)C(c1ccc(Nc2nc3ccccc3s2)cc1)n1cncn1 (stereo not drawn) [Talarozole],active: 7.13,inactive: 1.82,active: 6.78
Cc1[nH]c(NC(=O)c2cc(CNC(=O)C(C)C)cnc2C(F)F)nc1-c1ccc(C(F)(F)F)cc1,inactive: -1.59,inactive: -1.13,inactive: 3.31
O=c1c(-n2ccnn2)c[nH]n1-c1cc(N2CCOCC2)ncn1 [molidustat],inactive: 1.14,inactive: 0.648,inactive: 2.85
CC1(C)C=C(c2ccccn2)c2cc(C#N)ccc2O1,inactive: 2.31,inactive: -1.54,inactive: -1.27
CC1(C)C(/C=C/C=C/C=C/C=C2/N(CCCCS(=O)(=O)[O-])c3ccc4ccccc4c3C2(C)C)=[N+](CCCCS(=O)(=O)[O-])c2ccc3ccccc3c21 [indocyanin green],–,inactive: 1.61,–
"CC1(C)C(/C=C/C=C/C=C/C=C2/N(CCCCS(=O)(=O)[O-])c3ccc4ccccc4c3C2(C)C)=[N+](CCCCS(=O)(=O)[O-])c2ccc3ccccc3c21 [indocyanin green, Daiichi]",inactive: 0.421,–,inactive: 0.536
O=C(C1CC1)N1CCCN(c2nc3ncccc3o2)CC1,inactive: -2.37,–,inactive: -0.18

# Taken from the listing for reference:
SMILES,TEAD-luciferase reporter activity (compound concentration: 200 nM),TEAD-luciferase reporter activity (compound concentration: 2 uM),TEAD-luciferase reporter activity (compound concentration: 10 uM)
COc1ccc(OC)c(Cc2cnc3nc(N)nc(N)c3c2C)c1,inactive: -0.731,inactive: -0.418,inactive: -1.78
C#CCOc1ccc2c(c1)c(-c1ccc(C(C)C)cc1)nc(=O)n2Cc1ccc(OC)c(OCC)c1,inactive: -1.41,inactive: -1.83,inactive: 1.76
Cc1ccc2[nH]c3c(c2c1)CCC(NC(=O)Cc1ccc(F)cc1)C3 (stereo not drawn),inactive: -0.811,inactive: 1.44,inactive: -2.39
COc1ccc2c(c1)N(C(=O)OC(C)C)[C@@H](CSC)C(=O)N2,inactive: 0.00241,inactive: -0.145,inactive: 0.839
C[C@H]1c2cccc(O)c2C(=O)C2=C(O)[C@]3(O)C(=O)C(C(N)=O)=C(O)[C@@H](N(C)C)[C@@H]3[C@@H](O)[C@@H]21 [doxycycline],inactive: 0.463,–,inactive: 2.62
C[C@H]1c2cccc(O)c2C(=O)C2=C(O)[C@]3(O)C(=O)C(C(N)=O)=C(O)[C@@H](N(C)C)[C@@H]3[C@@H](O)[C@@H]21 [doxycycline hyclate],–,inactive: -0.603,–
